Sequences of proteins named here, by UniProt entry; tags and fusion partners are left off. A change or cut given only in a name is not applied to a line headed by its entry.
UniProt Q8N3Z3: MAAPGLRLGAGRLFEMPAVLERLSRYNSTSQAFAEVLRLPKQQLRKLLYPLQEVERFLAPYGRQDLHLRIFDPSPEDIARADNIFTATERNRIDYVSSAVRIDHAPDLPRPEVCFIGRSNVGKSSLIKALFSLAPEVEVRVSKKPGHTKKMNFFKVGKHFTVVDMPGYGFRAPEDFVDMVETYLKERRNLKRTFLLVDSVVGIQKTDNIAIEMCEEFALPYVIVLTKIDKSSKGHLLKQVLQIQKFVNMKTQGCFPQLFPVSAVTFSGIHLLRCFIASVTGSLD

In PMC11229512:

Target: C-terminal FLAG-tagged GTPBP8 (human) (UniProt Q8N3Z3)
Test: affinity purification with mass spectrometry; FLAG-IP (Sigma-Aldrich kit) of GTPBP8::FLAG from mitochondrial lysate of HEK293 induced with 50 ng/ml doxycycline for 48 h; buffers with 5 mM MgCl2; elution with 3X FLAG peptides; LFQ mass spectrometry against mtLuc::FLAG control; thresholds log2FC > 3 and adj. p-value < 0.05

binding: binds
B1: DDX28 (protein, UniProt Q9NUL7 1-540)
chain: MALTRPVRLFSLVTRLLLAPRRGLTVRSPDEPLPVVRIPVALQRQLEQRQSRRRNLPRPVLVRPGPLLVSARRPELNQPARLTLGRWERAPLASQGWKSRRARRDHFSIERAQQEAPAVRKLSSKGSFADLGLEPRVLHALQEAAPEVVQPTTVQSSTIPSLLRGRHVVCAAETGSGKTLSYLLPLLQRLLGQPSLDSLPIPAPRGLVLVPSRELAQQVRAVAQPLGRSLGLLVRDLEGGHGMRRIRLQLSRQPSADVLVATPGALWKALKSRLISLEQLSFLVLDEADTLLDESFLELVDYILEKSHIAEGPADLEDPFNPKAQLVLVGATFPEGVGQLLNKVASPDAVTTITSSKLHCIMPHVKQTFLRLKGADKVAELVHILKHRDRAERTGPSGTVLVFCNSSSTVNWLGYILDDHKIQHLRLQGQMPALMRVGIFQSFQKSSRDILLCTDIASRGLDSTGVELVVNYDFPPTLQDYIHRAGRVGRVGSEVPGTVISFVTHPWDVSLVQKIELAARRRRSLPGLASSVKEPLPQAT

These are yes or no findings as the source states them, for the method shown. In cells and extracts the contact can be indirect. These calls come from enrichment with a bait or labelling near it, and not all partners need be listed.
